# Laboratory results as given in paper PMC5996148.
# This is one part of the list. For some assays here: Construct or isoform of the protein are uncertain.
# Columns and labels:
# Assay in all cases: protein microarray (ProtoArray v5.0), streptavidin-Alexa Fluor 647
# Conditions in all cases: 3'-biotin; 20 mM Tris (pH 7.5), 5 mM MgCl2, 100 mM KCl, 0.1% Tween-20, A/T-rich and random oligonucleotide blockers; temperature not stated; high values mean tight binding
# [1] = tested on: TANK (human)
# [2] = tested on: TBC1 domain family member 13 (human)
# [3] = tested on: TBC1D7 (human)
# [4] = tested on: TBC1D9B (human)
# [5] = tested on: TBCD (human)
# [6] = tested on: TBL1X (human)
# [7] = tested on: TCP11 (human)
# [8] = tested on: TCP11L1 (human)
# [9] = molecular target: T1, TEKT4 (UniProt Q8WW24)
# T1 sequence: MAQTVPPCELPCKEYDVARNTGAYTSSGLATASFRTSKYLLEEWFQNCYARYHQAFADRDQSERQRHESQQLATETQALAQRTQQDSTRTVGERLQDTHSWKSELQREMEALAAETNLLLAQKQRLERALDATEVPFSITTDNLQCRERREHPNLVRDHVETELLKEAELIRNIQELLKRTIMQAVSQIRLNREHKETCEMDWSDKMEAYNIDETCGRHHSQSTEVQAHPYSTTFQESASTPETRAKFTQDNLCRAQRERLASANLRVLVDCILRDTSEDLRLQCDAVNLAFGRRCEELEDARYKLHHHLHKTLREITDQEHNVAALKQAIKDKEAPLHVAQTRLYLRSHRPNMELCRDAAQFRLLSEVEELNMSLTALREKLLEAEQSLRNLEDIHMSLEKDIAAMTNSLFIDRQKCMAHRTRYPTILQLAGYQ
# [10] = tested on: TESC (human)
# [11] = tested on: TEX13B (human)
# [12] = tested on: TF (human)
# [13] = tested on: TFF2 (human)
# [14] = tested on: THEM5 (human)
# [15] = tested on: THOC3 (human)
# [16] = tested on: TICAM2 (human)
# [17] = tested on: TIMM10 (human)
# [18] = tested on: TIMM8A (human)
# [19] = tested on: TIMM8B (human)
# [20] = tested on: TIPIN (human)
sequence,measurement,setting,value
GGTGACAGGGGTATGGGGAGGGG [G4-2 biotinylated (Ct1)],binding signal,[1],-0.386 z-score
same,binding signal,[2],-0.401 z-score
same,binding signal,[3],-0.392 z-score
same,binding signal,[4],-0.37 z-score
same,binding signal,[5],-0.39 z-score
same,binding signal,[6],-0.398 z-score
same,binding signal,[7],-0.394 z-score
same,binding signal,[8],-0.372 z-score
same,binding signal,[9],-0.379 z-score
same,binding signal,[10],-0.385 z-score
same,binding signal,[11],-0.394 z-score
same,binding signal,[12],-0.388 z-score
same,binding signal,[13],-0.37 z-score
same,binding signal,[14],-0.387 z-score
same,binding signal,[15],-0.38 z-score
same,binding signal,[16],-0.358 z-score
same,binding signal,[17],-0.379 z-score
same,binding signal,[18],-0.387 z-score
same,binding signal,[19],-0.387 z-score
same,binding signal,[20],-0.397 z-score

# Given with tabs: part of the list above
sequence	measurement	setting	value
GGTGACAGGGGTATGGGGAGGGG [G4-2 biotinylated (Ct1)]	binding signal	[12]	-0.388 z-score
same	binding signal	[13]	-0.37 z-score
